Each structure is given as a SMILES string. ≈ marks a conversion by molar mass, not a printed value.

Assay [1] deals with Staphylococcus epidermidis. The assay is described as follows: microbe, parasite or virus in culture. Particulars: ATCC12228. The method, then: (§1) The minimal inhibitory concentrations (MIC) were determined according to the Clinical and Laboratory Standards Institute (CLSI) conditions guidelines detailed in Table 7. Assays were performed in triplicate.
(§2) Preparation of Inocula. Five to 10 well-isolated colonies were picked and resuspended in 3 ml sterile saline. The inoculum was re-suspended by vigorous shaking on a vortex mixer for 15 s. Turbidity was adjusted to McFarland standard 0.5 ([…]). The inoculum was further diluted in the appropriate media (Table 7) to give a final inoculum in each well of ˜2-8×10^5 CFU/ml.
(§3) Addition of Test Article. Stock solutions of Odilomycin A or comparator were diluted in the appropriate media to give a maximum starting concentration of 50 μg/mL in the assay. 50 μL of medium was dispensed into each well in columns two to 12 of a 96 well plate. 100 μL of the appropriate test compound solution (100 μg/mL) was dispensed into each well in column one. In the case of M. catarrhalis, M. haemolytica and P. multocida these values were doubled (a final assay volume of 200 μL was used). […] Columns 11 and 12 served as positive (no drug or test article, inoculum added), and negative (no drug, test article, or inoculum added) growth controls respectively.
(§4) Addition of Bacterial Strains. […]

The subject of the next assay is Bacillus subtilis. Nature of the assay: microbe, parasite or virus in culture. The note with it: DSM347. The method, then: as §1, §2, §3, §4

In the case of `CN[C@H](CC(C)C)C(=O)N[C@H]1C(=O)N[C@@H](CC(N)=O)C(=O)N[C@H]2C(=O)N[C@H]3C(=O)N[C@H](C(=O)N[C@H](C(=O)O)c4cc(O)cc(O)c4-c4cc3ccc4O)[C@H](O)c3ccc(c(Cl)c3)Oc3cc2cc(c3O[C@@H]2O[C@H](CO)[C@@H](O)[C@H](O)[C@H]2O[C@H]2C[C@](C)(N)[C@H](O)[C@H](C)O2)Oc2ccc(cc2Cl)[C@H]1O` [Vancomycin, vancomycin], the MIC (in assay [1]; with Bacillus subtilis) was 0.2 µg/mL (≈ 0.138 µM) throughout.

For the origin of these results see patent US9260481B2, “Peptide derivatives as antibiotics” (priority 2011, dated 2016).
